Laboratory results reported in patent publication US20040044177A1, “Peptide compounds having improved binding affinity to somatostatin receptors” (priority 2002, published 2004).
For part of these data: Part of at least one peptide drawing is inferred or uncertain, most often the ends. For part of these data: At least one compound was matched to its structure with a doubt left. Bridge positions count the residues as written; N and C are the ends. Square brackets hold non-standard residues; d marks the D form. Peptide text beside a SMILES is read from it. * marks the point of attachment. DOTA = O=C(O)CN1CCN(CC(=O)O)CCN(CC(=O)*)CCN(CC(=O)O)CC1; 1Nal = N[C@@H](Cc1cccc2ccccc12)C(=O)O

Sequences of proteins named here, by UniProt entry; tags and fusion partners are left off. A change or cut given only in a name is not applied to a line headed by its entry.
UniProt P30874: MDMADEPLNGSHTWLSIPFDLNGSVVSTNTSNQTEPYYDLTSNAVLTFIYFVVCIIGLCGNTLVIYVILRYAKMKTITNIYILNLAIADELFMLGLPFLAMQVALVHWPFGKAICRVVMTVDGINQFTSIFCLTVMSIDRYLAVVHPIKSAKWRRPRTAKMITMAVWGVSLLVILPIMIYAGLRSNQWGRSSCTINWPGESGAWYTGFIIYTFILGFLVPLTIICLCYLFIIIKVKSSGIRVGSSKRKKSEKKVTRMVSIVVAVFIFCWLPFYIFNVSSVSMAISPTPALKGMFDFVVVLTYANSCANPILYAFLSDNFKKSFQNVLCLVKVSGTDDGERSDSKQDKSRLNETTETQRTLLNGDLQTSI
UniProt P32745: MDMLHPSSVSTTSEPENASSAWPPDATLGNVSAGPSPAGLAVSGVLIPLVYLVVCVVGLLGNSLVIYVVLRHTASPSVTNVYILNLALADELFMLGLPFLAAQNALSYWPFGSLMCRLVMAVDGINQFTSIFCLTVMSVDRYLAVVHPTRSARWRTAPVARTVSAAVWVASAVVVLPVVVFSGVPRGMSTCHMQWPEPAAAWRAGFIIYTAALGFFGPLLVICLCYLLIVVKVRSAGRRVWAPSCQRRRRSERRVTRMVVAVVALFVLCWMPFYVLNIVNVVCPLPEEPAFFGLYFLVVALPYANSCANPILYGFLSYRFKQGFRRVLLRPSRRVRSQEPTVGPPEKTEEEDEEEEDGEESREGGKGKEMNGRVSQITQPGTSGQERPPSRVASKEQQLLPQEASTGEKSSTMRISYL
UniProt P35346: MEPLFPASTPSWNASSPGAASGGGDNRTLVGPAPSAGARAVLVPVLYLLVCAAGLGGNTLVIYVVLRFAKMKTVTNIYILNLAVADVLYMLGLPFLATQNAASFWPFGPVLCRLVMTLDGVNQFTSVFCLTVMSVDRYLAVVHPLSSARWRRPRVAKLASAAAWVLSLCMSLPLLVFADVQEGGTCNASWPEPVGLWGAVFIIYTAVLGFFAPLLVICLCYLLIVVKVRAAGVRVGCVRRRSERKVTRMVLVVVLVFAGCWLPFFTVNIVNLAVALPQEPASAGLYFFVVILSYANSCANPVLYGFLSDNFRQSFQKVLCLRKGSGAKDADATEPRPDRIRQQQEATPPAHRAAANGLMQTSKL

Tests used:
[1] = target: human somatostatin receptor subtype hsst2 (Homo sapiens, UniProt P30874); experiment: In vitro binding affinity, transfected cell lines, hsst 2; design: expressed in transfected cells; conditions: Table II
[2] = target: T1, human somatostatin receptor subtype hsst3 (Homo sapiens, UniProt P32745); experiment: In vitro binding affinity, transfected cell lines, hsst 3; design: expressed in transfected cells; conditions: Table II
[3] = target: T2, human somatostatin receptor subtype hsst5 (Homo sapiens, UniProt P35346); experiment: In vitro binding affinity, transfected cell lines, hsst 5; design: expressed in transfected cells; conditions: Table II
[4] = target: T1, human somatostatin receptor subtype hsst3; experiment: In vitro binding affinity of peptide analogs (Table III), hsst3; conditions: DOTA complexed with stable Y or In
Protocol: Table III, presents the binding affinity of the new compounds to human somatostatin receptor subtypes as compared to the compound, Y-DOTA-TATE, described by Srinivasan et al. (U.S. Pat. No. 5,830,431).
(§1) IC50 values were determined as described by Reubi et al. (Eur J Nuc Med 28:836-846, 2001).

[5] = target: T2, human somatostatin receptor subtype hsst5; experiment: In vitro binding affinity of peptide analogs (Table III), hsst5; conditions: DOTA complexed with stable Y or In
Protocol: as §1

| Structure (SMILES) | IC50 [1] | IC50 [2] | IC50 [3] | IC50 [4] | IC50 [5] |
| --- | --- | --- | --- | --- | --- |
| C[C@@H](O)[C@@H]1NC(=O)[C@H](CCCCN)NC(=O)[C@@H](Cc2c[nH]c3ccccc23)NC(=O)[C@H](Cc2ccc3ccccc3c2)NC(=O)[C@@H](NC(=O)[C@@H](Cc2ccccc2)NC(=O)CN2CCN(CC(=O)O)CCN(CC(=O)O)CCN(CC(=O)O)CC2)CSSC[C@@H](C(=O)N[C@H](CO)[C@@H](C)O)NC1=O [cpd. 10] | 25 ± 1 nM | 133 ± 68 nM | 98 ± 12.5 nM |  |  |
| C[C@@H](O)[C@H](NC(=O)[C@@H]1CSSC[C@H](NC(=O)[C@@H](Cc2ccccc2)NC(=O)CN2CCN(CC(=O)O)CCN(CC(=O)O)CCN(CC(=O)O)CC2)C(=O)N[C@@H](Cc2cccc3ccccc23)C(=O)N[C@H](Cc2c[nH]c3ccccc23)C(=O)N[C@@H](CCCCN)C(=O)N[C@@H]([C@@H](C)O)C(=O)N1)C(=O)O [compound 3] ({DOTA}-[dF]C[1Nal][dW]KTCT-OH; disulfide 2-7; C-terminus assumed) |  |  |  | 13 nM | 4.3 nM |
| C[C@@H](O)[C@H](NC(=O)[C@@H]1CSSC[C@H](NC(=O)[C@@H](Cc2ccccc2)NC(=O)CN2CCN(CC(=O)O)CCN(CC(=O)O)CCN(CC(=O)O)CC2)C(=O)N[C@@H](Cc2ccc(O)cc2)C(=O)N[C@H](Cc2c[nH]c3ccccc23)C(=O)N[C@@H](CCCCN)C(=O)N[C@@H]([C@@H](C)O)C(=O)N1)C(=O)O [compound 1, reference compound] |  |  |  | > 1000 nM |  |
| C[C@@H](O)[C@@H]1NC(=O)[C@H](CCCCN)NC(=O)[C@@H](Cc2c[nH]c3ccccc23)NC(=O)[C@H](Cc2cccnc2)NC(=O)[C@@H](NC(=O)[C@@H](Cc2ccccc2)NC(=O)CN2CCN(CC(=O)O)CCN(CC(=O)O)CCN(CC(=O)O)CC2)CSSC[C@@H](C(=O)N[C@H](CO)[C@@H](C)O)NC1=O [cpd. 11] | 22 ± 9 nM | 205 ± 43 nM | 648 ± 165 nM |  |  |
